PubChem BioAssay AID1508588, Peter MacCallum Cancer Centre – 2020
The whole screen tested about 18,000 reagents; below is a part drawn at random. 790 of all reagents (4.4%) were called active. 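Calls rest on a combination of fold-change classes in drug and vehicle arms, not all shown here.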 Entries without a mark were called inactive. Reagent sequences are not shown.

Screen: 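Genome-wide search for knock-downs that heighten vemurafenib action in melanoma cells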 (primary screen)
System: human WM266.4 melanoma cells (BRAF V600 mutant)
Reagent: siRNA pool against human genes, 40 nM
Duration: 96 h from transfection to read-out
Conditions: vemurafenib 300 nM (about IC25), added 48 h after transfection, for 48 h; comparison arm got DMSO vehicle only
Read-out: 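Ratios to non-targeting siRNA for cell gain, counted as DAPI nuclei after minus before drug and averaged over two replicates, and for absorbance-read medium lactate per cell; both binned into fold-change classes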
Scale: cell gain with vemurafenib: higher = more cell gain than with non-targeting siRNA; lactate per cell with vemurafenib: higher = more lactate made per cell
Active means: 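a knock-down counts as enhancing when its fold-change classes with vehicle and with vemurafenib, taken together, show a stronger drug effect on cell gain or lactate per cell; exact class pairs not stated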
Calls: active = enhances vemurafenib effect; inactive = no enhancement seen

gene	cell gain with vemurafenib	lactate per cell with vemurafenib
PTPMT1 (protein tyrosine phosphatase mitochondrial 1)	0.74	0.52
WDR77 (WD repeat domain 77)	0.59	1.38
YTHDF3 (YTH N6-methyladenosine RNA binding protein F3)	0.61	0.63
RRP1B (ribosomal RNA processing 1B)	0.6	0.74
COQ9 (coenzyme Q9)	0.64	0.61
RND2 (Rho family GTPase 2)	0.31	1.17
DISP1 (dispatched RND transporter family member 1)	0.13	1.4
MAVS (mitochondrial antiviral signaling protein)	0.39	1.51
AMFR (autocrine motility factor receptor)	0.95	1.43
LOX (lysyl oxidase)	1.29	0.52
STX4 (syntaxin 4)	0.5	1.34
CTNNAL1 (catenin alpha like 1)	0.65	0.78
ATP6V1C2 (ATPase H+ transporting V1 subunit C2)	0.33	0.41
B4GALT3 (beta-1,4-galactosyltransferase 3)	1.34	0.88
MED12 (mediator complex subunit 12)	0.55 (active)	0.4
GABRP (gamma-aminobutyric acid type A receptor subunit pi)	0.57	1.62
ODAD3 (outer dynein arm docking complex subunit 3)	0.37	0.88
OR4C16 (olfactory receptor family 4 subfamily C member 16)	0.26	1.12
POLR2H (RNA polymerase II, I and III subunit H)	0.44	1.01
STAG3 (STAG3 cohesin complex component)	1.22	0.82
RAB3IL1 (RAB3A interacting protein like 1)	0.79	0.79
IQCC (IQ motif containing C)	0.3	1.06
THAP12 (THAP domain containing 12)	0.17	2.8
SDR39U1 (short chain dehydrogenase/reductase family 39U member 1)	0.84	0.92
MYCBP (MYC binding protein)	0.45	0.94
UNC5B (unc-5 netrin receptor B)	0.87	0.64
ELP1 (elongator acetyltransferase complex subunit 1)	0.59	0.96
LRRC56 (leucine rich repeat containing 56)	0.74	0.78
RNF121 (ring finger protein 121)	1.11	0.76
CRLF3 (cytokine receptor like factor 3)	0.72	0.24
CDK2AP2 (cyclin dependent kinase 2 associated protein 2)	0.24	0.95
ACAP3 (ArfGAP with coiled-coil, ankyrin repeat and PH domains 3)	0.67	0.95
IRF6 (interferon regulatory factor 6)	0.6	0.52
CENATAC (centrosomal AT-AC splicing factor)	0.06	2.68
ZNF300 (zinc finger protein 300)	0.16 (active)	0.27
SREK1 (splicing regulatory glutamic acid and lysine rich protein 1)	1.04	0.92
ANKFN1 (ankyrin repeat and fibronectin type III domain containing 1)	0.71	0.36
DNTTIP2 (deoxynucleotidyltransferase terminal interacting protein 2)	0.12	0.55
ITGA11 (integrin subunit alpha 11)	0.46	0.55
ZNF699 (zinc finger protein 699)	0.18	2.17
PLXNA2 (plexin A2)	0.79 (active)	0.4
ANKRD36 (ankyrin repeat domain 36)	1	0.45
GANC (glucosidase alpha, neutral C)	1.19	0.46
ANAPC7 (anaphase promoting complex subunit 7)	0.46	0.88
C2 (complement C2)	0.73	0.82
LRRC41 (leucine rich repeat containing 41)	0.67	0.74
IRF7 (interferon regulatory factor 7)	0.85	0.78
APOL2 (apolipoprotein L2)	0.97	0.33
PHRF1 (PHD and ring finger domains 1)	0.53	0.88
LCE2B (late cornified envelope 2B)	0.77	0.88
APMAP (adipocyte plasma membrane associated protein)	0.82	0.82
KCNE4	0.62	0.14
CCDC47 (coiled-coil domain containing 47)	0.28	0.88
FPGT (fucose-1-phosphate guanylyltransferase)	0.89	1.16
ALS2 (alsin Rho guanine nucleotide exchange factor ALS2)	0.28	0.4
PRKCG (protein kinase C gamma)	1.19	0.36
DNAJC21 (DnaJ heat shock protein family (Hsp40) member C21)	0.54	0.66

Called active (from the list above):
gene	cell gain with vemurafenib	lactate per cell with vemurafenib
MED12 (mediator complex subunit 12)	0.55 (active)	0.4
ZNF300 (zinc finger protein 300)	0.16 (active)	0.27
PLXNA2 (plexin A2)	0.79 (active)	0.4
